Assay results: paper PMC3492188
Results are given in words; binding and its absence hold for the method and conditions named. Binding seen in cells or lysates may run through a third protein. Some entries that bind do so weakly or less than the wild type. Tags and fused reporters may be left off the sequences shown. One block for each molecule: values may come before it.

Sequences of proteins named here, by UniProt entry; tags and fusion partners are left off.
UniProt P19091: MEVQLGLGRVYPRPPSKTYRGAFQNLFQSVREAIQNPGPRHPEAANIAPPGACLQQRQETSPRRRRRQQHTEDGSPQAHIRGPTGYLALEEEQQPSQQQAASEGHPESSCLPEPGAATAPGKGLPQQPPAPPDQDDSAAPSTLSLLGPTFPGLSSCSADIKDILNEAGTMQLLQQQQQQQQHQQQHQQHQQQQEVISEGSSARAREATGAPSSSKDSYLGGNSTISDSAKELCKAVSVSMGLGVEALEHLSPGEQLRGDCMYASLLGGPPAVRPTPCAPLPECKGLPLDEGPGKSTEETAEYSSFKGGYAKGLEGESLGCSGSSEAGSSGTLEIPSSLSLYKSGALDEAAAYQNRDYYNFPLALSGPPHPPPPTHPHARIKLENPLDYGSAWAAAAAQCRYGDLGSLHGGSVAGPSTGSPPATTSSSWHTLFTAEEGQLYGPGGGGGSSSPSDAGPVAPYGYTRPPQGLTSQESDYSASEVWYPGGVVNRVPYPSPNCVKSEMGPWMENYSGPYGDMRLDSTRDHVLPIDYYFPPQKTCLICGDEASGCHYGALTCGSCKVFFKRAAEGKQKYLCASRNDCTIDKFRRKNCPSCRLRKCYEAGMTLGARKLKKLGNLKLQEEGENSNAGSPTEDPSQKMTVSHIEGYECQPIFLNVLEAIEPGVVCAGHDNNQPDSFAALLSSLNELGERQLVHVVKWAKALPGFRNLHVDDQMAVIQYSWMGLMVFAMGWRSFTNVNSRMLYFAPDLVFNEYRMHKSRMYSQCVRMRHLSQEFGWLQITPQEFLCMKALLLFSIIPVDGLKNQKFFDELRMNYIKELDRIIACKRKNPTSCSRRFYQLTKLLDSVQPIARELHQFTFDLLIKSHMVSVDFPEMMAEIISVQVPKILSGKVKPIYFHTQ

Legend:
GFP-COUP-TF II (mouse) = target: T1, GFP-COUP-TF II (mouse) (UniProt P43135); assay: co-IP; PPC-1 cells transfected with AR and GFP-COUP-TF II, treated with 10 nM DHT or vehicle; RIPA lysate; immunoprecipitation with anti-AR (sc-815) or anti-GFP (sc-9996), Western blot with both
T1 sequence: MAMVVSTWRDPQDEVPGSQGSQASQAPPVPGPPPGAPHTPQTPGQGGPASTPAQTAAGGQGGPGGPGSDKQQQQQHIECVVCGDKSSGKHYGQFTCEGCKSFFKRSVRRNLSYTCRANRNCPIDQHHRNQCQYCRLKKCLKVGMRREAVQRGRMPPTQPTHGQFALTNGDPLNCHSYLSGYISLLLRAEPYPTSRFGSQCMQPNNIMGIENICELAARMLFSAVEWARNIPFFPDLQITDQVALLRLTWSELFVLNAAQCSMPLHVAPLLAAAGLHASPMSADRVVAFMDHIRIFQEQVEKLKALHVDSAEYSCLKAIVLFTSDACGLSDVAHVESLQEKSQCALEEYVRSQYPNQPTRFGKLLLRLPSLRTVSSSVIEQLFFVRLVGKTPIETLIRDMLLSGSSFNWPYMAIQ

[1] = target: T2, GST-COUP-TF II full length (mouse) (UniProt P43135); assay: pull-down; GST fusion proteins immobilised on glutathione-Sepharose-4B beads, incubated with [35S] methionine-labeled in vitro translated protein; GST-binding buffer (20 mM Tris-HCl pH 7.9, 250 mM NaCl, 10% glycerol, 0.05% NP-40, 5 mM MgCl2, 0.5 mM EDTA, 1 mM DTT, 1.5% BSA), overnight at 4°C; SDS-PAGE and autoradiography; only the target purified
T2 sequence: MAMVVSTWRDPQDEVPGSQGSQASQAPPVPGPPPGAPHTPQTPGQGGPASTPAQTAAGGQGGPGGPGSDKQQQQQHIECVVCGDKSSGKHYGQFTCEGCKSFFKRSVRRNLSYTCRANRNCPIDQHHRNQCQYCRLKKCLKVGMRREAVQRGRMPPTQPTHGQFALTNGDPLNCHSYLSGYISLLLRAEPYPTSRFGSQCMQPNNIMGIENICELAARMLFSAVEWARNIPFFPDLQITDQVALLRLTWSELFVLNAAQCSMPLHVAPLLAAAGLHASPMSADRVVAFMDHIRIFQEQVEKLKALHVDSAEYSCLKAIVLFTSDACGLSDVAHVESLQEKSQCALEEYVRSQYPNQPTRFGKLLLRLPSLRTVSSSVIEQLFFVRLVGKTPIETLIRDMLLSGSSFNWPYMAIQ

[2] = target: Androgen receptor (AR), expressed in PPC-1 cells (mouse) (UniProt P19091); assay: co-IP; PPC-1 cells transfected with AR and GFP-COUP-TF II, treated with 10 nM DHT or vehicle; RIPA lysate; immunoprecipitation with anti-AR (sc-815) or anti-GFP (sc-9996), Western blot with both

binding (GFP-COUP-TF II (mouse)): binds
Molecule: Androgen receptor (AR), expressed in PPC-1 cells (from UniProt P19091 1-899)

binding [1]: binds
Molecule: Androgen receptor (AR), in vitro translated (from UniProt P19091 1-899)

binding [2]: binds
B1: GFP-COUP-TF II (protein, UniProt P43135 1-414)
chain: MAMVVSTWRDPQDEVPGSQGSQASQAPPVPGPPPGAPHTPQTPGQGGPASTPAQTAAGGQGGPGGPGSDKQQQQQHIECVVCGDKSSGKHYGQFTCEGCKSFFKRSVRRNLSYTCRANRNCPIDQHHRNQCQYCRLKKCLKVGMRREAVQRGRMPPTQPTHGQFALTNGDPLNCHSYLSGYISLLLRAEPYPTSRFGSQCMQPNNIMGIENICELAARMLFSAVEWARNIPFFPDLQITDQVALLRLTWSELFVLNAAQCSMPLHVAPLLAAAGLHASPMSADRVVAFMDHIRIFQEQVEKLKALHVDSAEYSCLKAIVLFTSDACGLSDVAHVESLQEKSQCALEEYVRSQYPNQPTRFGKLLLRLPSLRTVSSSVIEQLFFVRLVGKTPIETLIRDMLLSGSSFNWPYMAIQ
